In PMC11339363:
These are yes or no findings as the source states them, for the method shown. Binding seen in cells or lysates may run through a third protein. Some results given as binding are weak or reduced against the parent protein; the word gives no strength.

The chains behind the UniProt entries cited, without tags or fusion partners. Residues count along the entry.
UniProt P05362, residues 28-532: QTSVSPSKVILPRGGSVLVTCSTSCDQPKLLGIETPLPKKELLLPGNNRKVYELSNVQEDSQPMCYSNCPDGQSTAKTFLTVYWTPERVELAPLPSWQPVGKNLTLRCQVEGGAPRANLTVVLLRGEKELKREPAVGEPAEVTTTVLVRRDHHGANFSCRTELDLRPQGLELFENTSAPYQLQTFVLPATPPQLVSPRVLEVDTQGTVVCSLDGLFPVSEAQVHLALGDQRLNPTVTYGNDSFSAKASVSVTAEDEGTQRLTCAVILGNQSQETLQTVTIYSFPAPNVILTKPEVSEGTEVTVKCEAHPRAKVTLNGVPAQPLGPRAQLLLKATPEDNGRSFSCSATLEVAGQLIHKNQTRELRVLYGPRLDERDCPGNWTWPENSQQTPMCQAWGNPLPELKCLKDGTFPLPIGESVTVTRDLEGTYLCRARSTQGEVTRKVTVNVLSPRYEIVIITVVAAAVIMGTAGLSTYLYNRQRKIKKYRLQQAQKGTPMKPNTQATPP
UniProt P02679, residues 27-453: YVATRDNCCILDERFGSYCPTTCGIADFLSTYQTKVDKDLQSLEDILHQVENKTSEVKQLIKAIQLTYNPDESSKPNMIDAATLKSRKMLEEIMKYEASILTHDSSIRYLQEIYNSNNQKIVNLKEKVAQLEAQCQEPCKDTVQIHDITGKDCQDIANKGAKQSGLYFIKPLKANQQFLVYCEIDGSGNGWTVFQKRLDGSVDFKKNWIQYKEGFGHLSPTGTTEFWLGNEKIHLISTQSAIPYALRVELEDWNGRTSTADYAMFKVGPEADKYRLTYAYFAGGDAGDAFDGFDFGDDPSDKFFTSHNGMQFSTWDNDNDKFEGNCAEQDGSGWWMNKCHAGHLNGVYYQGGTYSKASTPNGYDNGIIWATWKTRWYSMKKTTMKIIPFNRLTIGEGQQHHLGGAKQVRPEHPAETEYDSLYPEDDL

Biological target: Intercellular cell adhesion molecule-1 (ICAM-1), endogenous in NSCLC and bronchial epithelial cell lines (human (endogenous in A549, H1650, 16HBE)) (UniProt P05362)
Experiment: co-IP; cells treated with 5 mM DTBP for 30 min, lysed in TBS with 1% Triton X-100, 0.05% Tween 20 and protease and phosphatase inhibitors for 30 min on ice; lysates immunoprecipitated with the indicated antibodies (ICAM-1), rabbit IgG as control; immunoblot

## fibrinogen γ chain (FGG), cancer cell-derived (from UniProt P02679 27-453) (ligand)
  binding: binds
